Source: article PMC4297671
No constants are given. Whether binding was seen depends on the method and setting. In cells and extracts the contact can be indirect. Here binding means that the protein was enriched with, or labelled near, the bait; the list need not be complete. For some assays here: No binding means not detected with the bait.

Experiments:
[1] = target: T1, human salivary amylase (human) (UniProt P0DUB6); test: affinity purification with mass spectrometry; purified human salivary amylase (50 μg/ml) added to filtered culture supernatant of S. gordonii KS1 (wild type), room temperature, 2 h, static; precipitate collected at 5,000×g; SDS-PAGE, five gel slices, nano-LC/MS/MS; only the target purified
T1 sequence: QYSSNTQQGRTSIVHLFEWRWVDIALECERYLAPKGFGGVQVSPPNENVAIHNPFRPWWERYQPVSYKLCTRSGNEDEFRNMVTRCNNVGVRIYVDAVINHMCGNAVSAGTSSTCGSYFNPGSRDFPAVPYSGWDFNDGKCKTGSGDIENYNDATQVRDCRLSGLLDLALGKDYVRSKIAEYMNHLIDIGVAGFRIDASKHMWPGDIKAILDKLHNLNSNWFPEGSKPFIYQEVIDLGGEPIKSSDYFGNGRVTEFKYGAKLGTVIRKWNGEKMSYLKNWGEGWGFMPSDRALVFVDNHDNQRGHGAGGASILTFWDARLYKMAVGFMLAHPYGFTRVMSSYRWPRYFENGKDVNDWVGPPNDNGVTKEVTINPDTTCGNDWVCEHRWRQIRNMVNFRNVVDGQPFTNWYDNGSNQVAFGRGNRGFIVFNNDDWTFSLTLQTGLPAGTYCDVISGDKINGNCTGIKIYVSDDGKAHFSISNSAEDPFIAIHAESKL

[2] = target: T1, human salivary amylase (human); test: condition: only culture supernatant of the AbpA-deficient (ΔAbpA) strain; amylase 50 μg/ml; affinity purification with mass spectrometry; purified human salivary amylase (50 μg/ml) added to filtered culture supernatant of the AbpA-deficient strain ΔAbpA (KS1ΩabpA), room temperature, 2 h, static; precipitate collected at 5,000×g; SDS-PAGE, five gel slices, nano-LC/MS/MS; only the target purified
[3] = target: T1, human salivary amylase (human); test: affinity purification with mass spectrometry; purified human salivary amylase (50 μg/ml) added to filtered culture supernatant of the AbpA-deficient strain ΔAbpA (KS1ΩabpA), room temperature, 2 h, static; precipitate collected at 5,000×g; SDS-PAGE, five gel slices, nano-LC/MS/MS; only the target purified

| Molecule | binding [1] | binding [2] | binding [3] |
| --- | --- | --- | --- |
| sortase A (SGO_1230) (from UniProt Q9F0P0) | binds | no binding |  |
| Isopropylmalate isomerase large subunit (from UniProt A8AWP5) | binds |  | binds |
| cardiolipin synthase (SGO_2037) (from UniProt A8AZS5) | binds | no binding |  |
| Peptide chain release factor 1 (protein, UniProt P47850 1-359) MNIYEQLQAVEDRYEELGELLSDPDVVSDTKRFMELSKEEASTRDTVTAYREYKQVLQNIVDAEEMIKESGGDADLEEMAKQELKDAKAEKEEYEEKLKILLLPKDPNDDKNIILEIRGAAGGDEAQLFAGDLLQMYQKYAESQGWRFEVMEASYNGVGGIKEVVAMVSGQSVYSKLKYESGAHRVQRVPVTESQGRVHTSTATVLVMPEIEEVEYDIDPKDLRVDIYHASGAGGQNVNKVATAVRIVHLPTNIKVEMQEERTQQKNRDKAMKIIRARVADHFAQIAQDEQDAERKSTIGTGDRSERIRTYNFPQNRVTDHRIGLTLQKLDTILAGKLDEVVDALVLYDQTQKLEELNK | binds |  |  |
| Hypothetical protein SGO_0483 (protein, UniProt A8AVI9 1-302) MSITFSVSNKRGLLGFQKVLKISELLGLVDGLEPHPAQKDSLALGLDKLPLLKCWVPAKSGRYMDVEYDKTHKTYNVRILTPSTLADWEYALTLVSKLSAYLGTSIHDEHGREYSSSSVLAFPYQEDILLGLENFLKSGYPLVYQDGVRRRIALNPQMVEGFLKEDNPAQSYSNFFTLRQYLDAYDAQSKFYGNEQNQQILGVYTLTAGVDTILPFELSLAPEDVEYIDESKLSWCCNLVGCDDTDPDNVEKFFFYKRISYSDFLDRLPKDMAQVFDGEKIYVPAMTFAQMKDLFDSCPELV | binds | no binding |  |
| Argininosuccinate synthase (protein, UniProt A8AUN6 1-399) MVKEKVILAYSGGLDTSVAITWLNKDYDVIAVCMDVGEGNDLDFIHDKALKVGAIESHVIDVKDEFAEDYVLVALQGHTFYEQKYPLVSALSRPLISKKLVEIAHKTGATTIAHGCTGKGNDQVRFEVAIASLDPSLKVIAPVREWKWSREEEINYAKANGVPIPADLDSPYSVDQNLWGRANECGVLENPWNEAPEDAYDLTVAPEAAPDSPVYVNIDFEAGVPVALDGKKMKLADLILELNDLAGQHGVGRIDHVENRLVGIKSREIYECPGAVTLLAAHKEIEDLTLVRELAHFKPIIENELSNLIYNGLWFNPATEALIAYLKSTQQVVNGTAKVKLYKGSATVVARKSDNSLYDESLATYTSADTFDQDAAIGFIKLWGLPSKVHAEVQAHKDK | binds |  |  |
| cation-transporting ATPase YfgQ (T3 secretion) (SGO_1458) (protein, UniProt A8AY77 1-780) MHQNQFQGLSQAQVEERRQKGLTNQVTISTEKTTWQIVQSNIFTYFNFIFLVLAILLVLVQSWNNLLFVPIVVINSLIGIFQELRARKVLNKMRLLHTFSANVIRDGEEQVVSVEELVQDDVVKFSAGNQIYADGQILSGSLKVNESQLTGEADEIEKNPGDEVLSGSFVVAGQAYARLDKVGDQAYINQLAKEAKEISGVEESKMVHAVNRLVQIIGILIIPLGIMLFFRSFISNQETFQVSVTSTVGAIVGMIPEGLYLLMTLALVLGAMRLAKQKVLLNSMKGIETLSRVDVLCVDKTGTITENSMTVSQLIPVGDQKEVALEALSHYLEASQDTNDTIETLRAYPGIEKSGQAWSIKRQYPFSSKNKYAAVAFDQGTFVLGAPEYVLRRDLEHYQSYFQEVAEEGSRVLVFGRYEGENLEAGLEAPVIPFLFIVLENPVRENAAETFSYFERQGVTVKVISGDNPLTVSAVAKKAKIPHAENYVDARSLDSDEKIIQAAETYTVFGRVSPEQKQKLVQALQGQGHNVAMTGDGVNDILAMKKADCSIAMESGNDATKQIAQVVLLDSDFSHMPHIVAEGRRVVNNIQRSASLFLVKNIFSILLALTSTIFAFTYPLQASQMSLISGFTIGIPGFLLALEPNKERIRGRFLETVLKNALPAAIVDYLAVLVAVYCGHWLGLSPKEISTSSIILLAVVGFTIMYKLIRPLNRIKIGIMLLNIIGMILAALLLPRIFNLSGLSIAAILMTVLLSLLLERLIWFFQFLTNKAVALYKKRK | binds | no binding |  |
| isocitrate dehydrogenase (SGO_1611) (protein, UniProt A8AYM8 1-399) MADKILFEKGRLQVPDAPIIPYIQGDGIGVDIWKNAQLIFDEAVEKAYGGQRKVVWKEVLAGEKASDLTGNWLPDETLTTIKDCLVAIKGPLETPVGEGIRSLNVALRQELDLYACLRPVRYFKGVPSPLKHPEKTDITIFRENTEDIYAGIEWESGTTAVQKVIDFLQEDMQVDKIRFPKSSAIGIKPISKQGSERLIRAAIDYALAKGRLRRVTLVHKGNIQKFTEGGFRKWGYELAQREYADELASRKLIIQDVIADNFLQQILLYPEKFDVVALTNLNGDYASDALAAQVGGIGIAPGANINYETGHAIFEATHGTAPDIAGQNKANPCSLLLSGAMLFDYIGWSEVSHLLTKAVEKALFEQKVTGDFASQLEGVTALTTSQFAEELLANIEKCP | binds | no binding |  |
